Measurements reported in US20060223888A1, “Valproic acid analogues and pharmaceutical composition thereof” (priority 2002, published 2006).

Test system: PTZ-induced seizures
Assay: ED50 against PTZ-induced seizures, i.p.
Assay type: in vivo
Settings: male Sprague-Dawley rats (n = 8)
From the text: These compounds were investigated for anticonvulsant activity in mice^13 and rats (see results in Table 4) and found to be equivalent in potency to VPA.

Row | Structure (SMILES) | SLOPE of the log dose-response plot
1 | C/C=C\C(=C/CC)C(=O)[O-].[Na+] [325073A, Sodium (2E)-2-[(1Z)-prop-1-en-1-yl]pent-2-enoate] | 1.2 (0.8-1.8)
2 | CCCC(CCC)C(=O)[O-].[Na+] [332059A, Sodium 2-propylpentanoate, reference compound] | 1.2 (1.1-1.3)
3 | CCC=C(CCC)C(=O)O [(E)-2-ene VPA, 2-propylpent-2-enoic acid] | 1.2 (1.0-1.3)
